Consider 38 molecules from PubChem BioAssay AID2685 (National Center for Advancing Translational Sciences (NCATS), 2010).

This is one part of the list. Shown are side measurements of this screen, not its main read-out; they come without a call. Most of these compounds were active or inconclusive in the main read-out, so they are no random draw. The note in brackets gives the kind of curve behind each potency; many fits are weak.

A short description of this assay: qHTS Assay for Lipid Storage Modulators in Drosophila S3 Cells.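 As to cell number change: cells counted by Cell Tracker Red CMTPX staining in the red channel.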 To be noted: BODIPY lipid droplet fluorescence, 18-24 h; for cell number change: measured here: cell count max response, cells fed with added oleic acid. The method, boiled down:
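Laser-scanning cytometry quantifies lipid droplet accumulation (500–530 nm total intensity; droplet/cell object ratio) in oleic acid-fed (400 uM added) Drosophila S3 cells treated with a concentration series. 20 uM Triacsin C defined 100% inhibition.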
For orientation: In qHTS, concentration-response curves come from the screen itself.

Where [1] appears, read: measured here: lipid fluorescence (Fed channel) AC50, cells fed with added oleic acid.
[2] abbreviates: measured here: cell number channel AC50, cells fed with added oleic acid.

Take `COCCCNC(=S)N1CCC(NC(=O)c2ccco2)CC1`: the cell number change was -14.2%. Besides, the AC50 (in general, the concentration at which the activity in the assay is half-maximal) under setting [1] is 8.2 µM [falling, partial curve].
`CC1CCCCN1C(=O)CCS(=O)(=O)c1cccc2nonc12` (stereo unspecified): the cell number change was -37.2%. Under setting [2], the AC50 is 29.1 µM [falling, single point].
In the case of `O=C(COC(=O)COc1ccc2ccccc2c1)Nc1cc(C(F)(F)F)ccc1N1CCOCC1`, the cell number change is -43.3%. The AC50 under setting [2] was 0.517 µM [falling, partial curve, poor fit]. Besides, the AC50 under setting [1] was 0.517 µM [falling, full curve, poor fit].
For `CCOC(=O)C1(Cc2ccc(Cl)cc2)CCN(C(C)Cc2ccc(O)c(OC)c2)CC1` (stereo unspecified), the cell number change is -33.1%. The half-maximal activity concentration (AC50) under setting [2] was 23.1 µM [falling, single point]. Further, the AC50 under setting [1] was 4.61 µM [falling, partial curve].
On to `CC(=O)c1cccc(Nc2cc(C)nc3ccccc23)c1`, for which, under setting [1], the AC50 is 1.84 µM [rising, partial curve, poor fit].
Consider `Cc1n[nH]c(C)c1Sc1ccccc1N=Cc1cc(Cl)cc([N+](=O)[O-])c1O`, for which the cell number change is 51%. In addition, the AC50 under setting [2] is 20.6 µM [rising, single point].
In the case of `COc1ccc(NC(=O)CN(C)C(=O)/C=C/c2ccc(S(=O)(=O)N3CCCCCC3)cc2)cc1`, the AC50 under setting [1] was 23.1 µM [falling, single point].
For the molecule `Cn1c(=O)oc2cc(S(=O)(=O)N3CCOCC3)ccc21`, the cell number change is 0.259%. Also, the AC50 under setting [1] was 0.116 µM [falling, full curve, poor fit].
Turning to `COc1cccc(C2=NOC(C(=O)Nc3cccc(C(C)=O)c3)C2)c1` (stereo unspecified), the cell number change was -15.9%.
As to `Cc1ccc(Nc2nnc(SCC(=O)Nc3cccc(S(=O)(=O)NC4=NCCCCC4)c3)s2)cc1`, the cell number change turned out to be 20.9%. Besides, the AC50 under setting [1] is 0.651 µM [rising, single point].
Consider `Cc1cc(C)nc(-n2nc(C)c3c(C(F)(F)F)cc(=O)[nH]c32)n1`, for which the cell number change amounted to 1.61%.
As for `C/C(=N\Nc1nccnc1Cl)c1ccc(Br)cc1`, the cell number change is -0.265%.
On to `CCN(CC)S(=O)(=O)c1ccc(/C=C/C(=O)OCC(=O)NNC(=O)c2ccc(OC)cc2)cc1`, for which the cell number change was found to be 6.45%. Also, under setting [2], the AC50 is 6.51 µM [falling, single point]. Under setting [1], the AC50 was 6.51 µM [falling, partial curve, poor fit].
As for `COc1ccc2c(c1)C1NC(=S)N[C@@](C)(O2)C1C(=O)Nc1ccccc1` (stereo partly specified), the AC50 under setting [1] was 0.461 µM [rising, full curve].
On to `O=C(Cn1cnc2sc(-c3ccccc3)cc2c1=O)NCc1ccccc1`, for which the AC50 was 2.31 µM [rising, partial curve] under setting [2] and 2.06 µM [rising, partial curve] under setting [1].
With `CS(=O)(=O)c1ccc2nc(NC(=O)Nc3cccc(Cl)c3)sc2c1`, the AC50 under setting [1] was 8.2 µM [falling, partial curve].
As for `O=C1NC2(CCCCC2)C(=O)N1CCS(=O)(=O)Oc1ccccc1`, the cell number change was -1.09%.
Consider `C/C(=N\NC(=O)COc1cccc(C)c1)c1ccc2ccccc2c1O`, for which the cell number change is -8.22%. For the same molecule, the AC50 under setting [1] is 29.1 µM [falling, single point].
For `COc1ccc(CNCCC(c2ccc(F)cc2)c2ccc(OC(C)C)cc2)cc1OC` (stereo unspecified), the cell number change is -44.7%. Besides, the AC50 under setting [2] is 23.1 µM [falling, partial curve]. For the same molecule, the AC50 under setting [1] is 23.1 µM [falling, partial curve, poor fit].
As to `NNC(=O)COc1ccc(-c2n[nH]c(C(F)(F)F)c2-c2ccc(Br)cc2)c(O)c1`, the cell number change was -24.1%. Moreover, the AC50 under setting [1] was 0.461 µM [falling, single point].
As to `O=C(NS(=O)(=O)c1ccccc1)c1ccccc1`, the cell number change was -51.8%. In addition, under setting [2], the AC50 is 29.1 µM [falling, single point]. Further, the AC50 under setting [1] was 29.1 µM [falling, single point].
Regarding `S=c1[nH]nc(COc2ccccc2)n1/N=C/c1cccs1`, the cell number change was -23.1%. Besides, the AC50 under setting [1] was 32.6 µM [falling, single point].
Turning to `COc1ccc(CCN(C)C(=O)N2CCOCC2)cc1OC`, the cell number change is -18.4%. Besides, under setting [1], the AC50 is 2.31 µM [falling, partial curve].
As for `CN(CC(=O)Nc1ccc(F)c(F)c1F)C(=O)CCCc1nc2ccccc2c(=O)[nH]1`, the cell number change was -9.52%. Moreover, under setting [1], the AC50 was 0.651 µM [rising, partial curve].
Turning to `COc1ccc(OC)c(NC(=O)C2=C(C)Nc3ncnn3C2c2cccs2)c1` (stereo unspecified), the cell number change came to 13.1%. Besides, the AC50 under setting [1] was 0.82 µM [rising, full curve, poor fit].
With `COc1ccc(NC(=S)NCCCN2CCCC2)cc1Cl`, the cell number change is -3.79%.
Turning to `COc1ccc(-c2nc3ccccc3c(=O)n2CCOc2ccc(C)cc2C)cc1`, the cell number change was -26.5%. Moreover, the AC50 under setting [1] is 32.6 µM [falling, single point].
`CCCC(=O)Nc1cc(C)c(NC(=O)c2ccco2)cn1`: the cell number change was determined as 31.1%. Besides, the AC50 under setting [2] is 32.6 µM [rising, single point]. Further, under setting [1], the concentration at half-maximal activity (AC50) was 29.1 µM [rising, single point].
`c1ccc(CCc2nc(-c3ccccn3)no2)cc1`: the cell number change came to 33.3%. Moreover, the AC50 under setting [2] is 18.4 µM [rising, single point].
Turning to `COc1ccc(NC(=O)c2sc3nc(N4CCCC4)c4c(c3c2N)CC(C)(C)OC4)c(OC)c1`, the cell number change is -1.53%. Moreover, the half-maximal activity concentration (AC50) under setting [1] is 16.4 µM [rising, single point].
As for `COc1ccccc1N1CCN(C(c2ccc(C)cc2)c2nnnn2C(C)C)CC1` (stereo unspecified), the cell number change was 32.8%. Further, under setting [2], the AC50 was 6.51 µM [rising, partial curve, poor fit].
For `COc1cc(/C=N/Nc2nc3c(c(=O)n(C)c(=O)n3C)n2Cc2ccccc2)ccc1OC(=O)c1ccco1`, the cell number change is -55.7%. For the same molecule, under setting [2], the AC50 was 16.4 µM [falling, single point]. Besides, the AC50 under setting [1] is 14.6 µM [falling, partial curve].
Regarding `CCc1ccc(NC(=O)c2cc(-c3ccc4c(c3)OCO4)on2)cc1`, the cell number change was determined as 36.2%. Besides, under setting [1], the AC50 was 1.16 µM [rising, single point].
Take `CCOc1cc(C(=O)Nc2cnccn2)cc(OCC)c1OCC`: the cell number change came to 13.1%.
As to `O=C(NCCc1ccccc1)c1ccccc1NC(=O)C1CC=CCC1C(=O)O` (stereo unspecified), the cell number change is -33%. Besides, under setting [2], the AC50 was 13 µM [falling, partial curve, poor fit].
Take `Cc1cc(C)c(CN2CCC(n3nccc3NC(=O)CCOc3ccccc3)CC2)cc1C`: the cell number change is -4.89%. Also, the AC50 under setting [1] was 18.4 µM [falling, single point].
Turning to `CCOC(=O)C1=C(C)N(c2ccc(C)cc2)C(=O)/C1=C\c1cccs1`, the cell number change is -10.4%.
Same read-out and setting: the result for `O=C(C1CCCN(S(=O)(=O)c2cccc3nonc23)C1)N1CCN(c2cccc(Cl)c2)CC1` (stereo unspecified) reads 10.7%.
